What all share (test): co-IP
Experiment [1] addresses endophilin A1 (endogenous) (mouse (endogenous in cultured mouse neurons)) (UniProt Q62420).
The target in another experiment is Flag-endophilin A1 (UniProt Q62420).
In experiment [2] the target is endophilin A1 (endogenous) (mouse (endogenous in cultured mouse neurons)) (UniProt Q62420). The source holds these as a separate data set.

Protein sequences, listed by entry. Tags and fused reporters are not part of them.
UniProt Q62420: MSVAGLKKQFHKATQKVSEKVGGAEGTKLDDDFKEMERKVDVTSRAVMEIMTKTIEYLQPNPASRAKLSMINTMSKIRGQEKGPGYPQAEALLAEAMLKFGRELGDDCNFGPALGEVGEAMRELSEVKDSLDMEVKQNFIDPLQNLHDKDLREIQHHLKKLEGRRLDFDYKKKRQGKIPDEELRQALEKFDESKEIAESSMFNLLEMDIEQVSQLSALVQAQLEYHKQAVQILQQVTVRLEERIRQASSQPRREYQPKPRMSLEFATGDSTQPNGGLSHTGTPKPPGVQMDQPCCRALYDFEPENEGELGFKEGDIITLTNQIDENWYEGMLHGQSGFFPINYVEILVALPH
UniProt Q60598: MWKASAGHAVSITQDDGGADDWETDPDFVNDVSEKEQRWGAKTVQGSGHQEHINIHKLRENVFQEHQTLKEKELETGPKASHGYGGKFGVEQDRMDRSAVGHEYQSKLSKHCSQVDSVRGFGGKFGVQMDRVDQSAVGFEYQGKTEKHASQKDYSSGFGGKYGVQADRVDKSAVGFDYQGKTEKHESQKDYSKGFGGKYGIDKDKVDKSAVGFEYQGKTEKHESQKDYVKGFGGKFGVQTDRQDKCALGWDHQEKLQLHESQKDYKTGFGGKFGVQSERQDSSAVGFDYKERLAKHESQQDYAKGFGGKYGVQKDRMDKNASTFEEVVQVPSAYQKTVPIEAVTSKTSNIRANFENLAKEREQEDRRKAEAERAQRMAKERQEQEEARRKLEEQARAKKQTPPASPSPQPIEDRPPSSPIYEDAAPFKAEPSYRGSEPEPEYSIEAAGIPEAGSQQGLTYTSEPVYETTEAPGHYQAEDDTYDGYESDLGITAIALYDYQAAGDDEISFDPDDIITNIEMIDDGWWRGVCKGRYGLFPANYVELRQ

Where two headings read alike, the source gives them in different places. No constants are given. Whether binding was seen depends on the method and setting. Binding seen in cells or lysates may run through a third protein. Some entries that bind do so weakly or less than the wild type.

From publication doi:10.1101/2020.05.07.082081 come the findings set out here.

As for “cortactin (endogenous) (from UniProt Q60598 1-546)”, the binding result in experiment [1] is reported as “binds”.

B1: p140Cap (protein, UniProt Q9QWI6 1-1250)
chain: MQPWQCLRRFALAWWERTAEGRARSPREEVGPRDPGGRGEPDPERSSPPMLSADDAEYPREYRTLGGGGGGGSGGRRFSNVGLVHTSERRHTVIAAQSLEALSGLQKADADRKRDAFMDHLKSKYPQHALALRGQQDRMREQVGGWTVDPVCLLSSLCSHLHGDSTPSGAGQPAQQPNYWSFKTRSSRHTQGAQPGLADQAAKLSYASAESLETMSEAELPLGFSRMNRFRQSLPLSRSASQTKLRSPGVLFLQFGEETRRVHITHEVSSLDTLHALIAHMFPQKLTMGMLKSPNTAILIKDEARNVFYELEDVRDIQDRSIIKIYRKEPLYAAFPGSHLTNGDLRREMVYASRESSPTRRLNNLSPASHLASSSPPPGLPSGLPSGLPSGSPSRSRLSYAGGRPPSYAGSPVHHAAERLGGAPTGQGVSPSPSAILERRDVKPDEDLAGKAGGMVLVKGEGLYADPYGLLHEGRLSLAAAAETHSHTRARAACTSGVPCALSAPTPLPRCSPTWRTRCTRRALAALYGDGYGFRLPPSSPQKLADVSAPSGGPPPPHSPYSGPPSRGSPVRQSFRKDSGSSSVFAESPGGKARSTGSASTAGAPPSELFPGPGERSLVGFGPPVPAKDTETRERMEAMEKQIASLTGLVQSALLRGSEPETPSEKVEGSNGAATPSAPVCGSGSKSSGATPVSGPPPPSASSTPAGQPTAVSRLQMQLHLRGLQNSASDLRGQLQQLRNVQLQNQESVRALLKPTEADVSMRVSEAARRQEDPLQRQRTLVEEERLRYLNDEELITQQLNDLEKSVEKIQRDVAHNHRLMPGPELEEKALVLKQLGETLTELKAHFPGLQSKMRVVLRVEVEAVKFLKEEPQRLDGLLKRCRGVTDTLAQIRRQVDEGMWPPPNNLLNQSPKKVAAETDFSKGLDFEIPPPSPPLNLHELSGPAEGTPLTPKSTNPTKCLDASSKRNTDKAVSVEAAERDWEEKRAALTQYSAKDINRLLEETQAELLKAIPDLDCASKTHPGPAPTPDHKPPKAPHGQKAAPRTEPSGRRGSDELTVPRYRTEKPSKSPPPPPPRRSFPSSHGLTTTRTGEVVVTSKKDSVFIKKAESEELEVQKPQVKLRRAVSEVVRPASTPPIMASAIKDEDDEERIIAELESGGSSVPPMKVVTPGASRLKAAQGPAGSPDKGKHGKQRTEYMRIQAQQQATKPSKEVSGPNETSSPGSEKPSGSRTSIPVLTSFGARNSSISF
For the molecule B1, the binding entry with Flag-endophilin A1 is “binds”.

B2: p140Cap (endogenous) (protein, UniProt Q9QWI6 1-1250)
chain: B1 chain
In the case of B2, the binding entry in experiment [2] is given as “binds”.
